From US20020077352A1, “N-methyl-D-aspartate receptor antagonists” (priority 2000, published 2002)
For at least one compound, name, drawing or mass did not settle the structure.

System: NMDARs
Assay: whole-cell patch clamp, NMDA-evoked currents in cultured mouse cortical neurons
Type: cell-based
Procedure: NMDA (200 μM) alone, NMDA plus aqueous Salvia miltiorrhiza extract (100 μl in 10 ml Hanks solution) and NMDA plus 20 nM tanshinone IIA were applied for about 3 seconds (black bars) in the continuous presence of glycine (10 μM) and absence of Mg^2+.
The ordinate indicates the percent steady-state block of currents evoked by 200 μM NMDA plus 10 μM glycine in the absence of Mg^2+.
NMDA (100 μM) or increasing concentrations of NMDA (100 μM-1600 μM) plus tanshinone IIA (20 nM) were applied for about 3 seconds (indicated by the black bars) in the continuous presence of glycine (10 μM) and absence of Mg^2+,
I/V curves were constructed by subtracting the response in the presence of NMDA (200 μM) plus tanshinone from the control response during the application of NMDA alone for 2 seconds at membrane holding potentials from −60 mV to +60 mV. Data from 2 to 5 sweeps were averaged for each trace. […]
The concentration dependence of the steady-state block of NMDA-induced currents was determined in order to obtain the dose/response curve of the NMDAR antagonist action of the tanshinones (FIG. 2). […]
The voltage-dependence of the inhibitory effects of the tanshinones was assessed by constructing current/voltage (I/V) plots in the presence or absence of the drugs (FIG. 3b).

C[C@H]1COC2=C1C(=O)C(=O)c1c2ccc2c1CCCC2(C)C [cryptotanshinone]
voltage-dependence of inhibition of NMDA-induced whole-cell currents (I/V plots, holding potentials −60 mV to +60 mV): voltage-independent
inhibition of the NMDA-induced currents (purified tanshinones, patch-clamp assay (20 nM, FIG. 1d)): strong, but readily reversible inhibition
